Experimental data reported in the supplement of paper PMC10849652.
This is one part of the list.

Protein sequences, listed by entry. Tags and fused reporters are not part of them. Lines headed by an entry give the natural chain unless they say otherwise; changes in a name come on top.
UniProt P86791: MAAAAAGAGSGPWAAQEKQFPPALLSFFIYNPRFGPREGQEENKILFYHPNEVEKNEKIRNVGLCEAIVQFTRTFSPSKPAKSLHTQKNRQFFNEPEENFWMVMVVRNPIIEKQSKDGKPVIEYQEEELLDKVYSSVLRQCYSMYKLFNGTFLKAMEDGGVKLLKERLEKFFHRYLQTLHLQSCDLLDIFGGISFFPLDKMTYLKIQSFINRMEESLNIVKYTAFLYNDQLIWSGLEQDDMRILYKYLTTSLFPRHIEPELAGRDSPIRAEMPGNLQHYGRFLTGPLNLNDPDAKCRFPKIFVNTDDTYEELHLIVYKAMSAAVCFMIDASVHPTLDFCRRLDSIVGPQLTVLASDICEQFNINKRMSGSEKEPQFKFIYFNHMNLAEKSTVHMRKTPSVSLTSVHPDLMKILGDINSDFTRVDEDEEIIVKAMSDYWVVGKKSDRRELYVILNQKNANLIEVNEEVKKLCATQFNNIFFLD
UniProt Q8IWD4: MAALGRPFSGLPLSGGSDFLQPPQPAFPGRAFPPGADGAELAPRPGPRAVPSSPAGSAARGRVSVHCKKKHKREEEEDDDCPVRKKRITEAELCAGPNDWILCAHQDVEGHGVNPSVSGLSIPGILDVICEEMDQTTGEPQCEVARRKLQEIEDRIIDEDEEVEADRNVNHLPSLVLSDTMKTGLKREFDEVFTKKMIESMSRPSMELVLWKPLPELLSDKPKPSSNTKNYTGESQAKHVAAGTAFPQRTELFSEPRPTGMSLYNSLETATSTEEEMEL
UniProt Q13185: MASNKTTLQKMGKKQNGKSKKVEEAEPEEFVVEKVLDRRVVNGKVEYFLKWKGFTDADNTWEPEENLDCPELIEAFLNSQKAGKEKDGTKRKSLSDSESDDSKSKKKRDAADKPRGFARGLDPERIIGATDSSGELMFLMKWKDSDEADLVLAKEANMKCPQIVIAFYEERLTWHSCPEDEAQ
UniProt Q13951, whole entry, looked up: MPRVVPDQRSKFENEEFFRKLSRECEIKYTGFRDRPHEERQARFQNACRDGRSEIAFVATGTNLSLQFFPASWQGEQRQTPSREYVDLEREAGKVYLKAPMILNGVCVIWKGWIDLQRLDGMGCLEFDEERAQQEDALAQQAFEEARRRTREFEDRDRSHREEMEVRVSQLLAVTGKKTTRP
UniProt Q86WR0: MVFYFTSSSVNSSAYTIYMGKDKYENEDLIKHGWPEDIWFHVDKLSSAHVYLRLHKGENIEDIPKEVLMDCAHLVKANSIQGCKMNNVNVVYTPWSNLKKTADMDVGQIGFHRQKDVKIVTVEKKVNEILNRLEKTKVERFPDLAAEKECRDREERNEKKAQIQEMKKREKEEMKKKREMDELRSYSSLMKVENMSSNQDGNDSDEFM
UniProt Q96CT7: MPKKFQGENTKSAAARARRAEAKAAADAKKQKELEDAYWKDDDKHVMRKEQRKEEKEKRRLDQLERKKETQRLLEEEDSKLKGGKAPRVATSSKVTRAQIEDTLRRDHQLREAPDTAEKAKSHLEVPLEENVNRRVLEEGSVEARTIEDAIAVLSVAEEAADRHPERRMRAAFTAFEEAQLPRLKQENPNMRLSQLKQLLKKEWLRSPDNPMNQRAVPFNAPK
UniProt Q6PII3: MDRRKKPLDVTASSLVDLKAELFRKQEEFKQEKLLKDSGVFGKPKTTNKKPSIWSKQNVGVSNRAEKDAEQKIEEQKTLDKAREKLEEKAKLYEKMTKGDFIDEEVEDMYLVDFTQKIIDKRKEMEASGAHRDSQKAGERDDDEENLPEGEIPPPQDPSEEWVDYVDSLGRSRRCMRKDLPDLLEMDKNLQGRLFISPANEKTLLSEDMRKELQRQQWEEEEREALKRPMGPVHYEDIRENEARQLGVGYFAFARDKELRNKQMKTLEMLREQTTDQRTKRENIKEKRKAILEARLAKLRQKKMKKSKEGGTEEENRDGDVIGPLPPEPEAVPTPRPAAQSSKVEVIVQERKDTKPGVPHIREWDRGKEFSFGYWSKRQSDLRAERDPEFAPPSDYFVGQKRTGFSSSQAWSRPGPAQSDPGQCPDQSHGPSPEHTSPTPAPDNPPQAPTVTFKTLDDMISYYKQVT
UniProt Q9H6E4: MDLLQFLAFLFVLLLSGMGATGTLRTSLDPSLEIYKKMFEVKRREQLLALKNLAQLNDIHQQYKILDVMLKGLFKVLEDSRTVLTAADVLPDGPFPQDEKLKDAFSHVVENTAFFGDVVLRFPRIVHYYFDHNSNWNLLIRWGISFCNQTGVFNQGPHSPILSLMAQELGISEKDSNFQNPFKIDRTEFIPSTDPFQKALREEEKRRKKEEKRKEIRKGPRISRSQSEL

Assays:
Experiment in all cases: log2 fold change, soluble protein after heating vs DMSO (PISA); higher = thermal stabilisation; K562 lysate, 10 uM; active = over 0.2 and 3.5 SD of the protein, either way, in both replicates (recomputed)
[1] = compound: C#Cc1cccc(Nc2ncnc3cc(OCCOC)c(OCCOC)cc23)c1 [erlotinib]
Procedure, shortened: (§1)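 Log-two fold change in thermal stability relative to solvent controls is reported from duplicates. For each sample, crude K562 extract from dounce-homogenised pellets in PBS pH 7.4 with 1 mM MgCl2, at 1 mg/mL protein, was treated with 10 μM compound for 30 min. Aliquots heated for 3 min across 48°C-58°C were pooled, brought to 0.5% NP-40 at 4°C and cleared at 21,000xg for 90 min. The supernatant was quantified by TMTpro 16plex LC-MS/MS with channel sums equalised.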

[2] = compound: C/C(=N\NC(=O)C1=CC(=CC=C1)S(=O)(=O)N2CCOCC2)/C3=C(C=CC(=C3)Cl)O
Procedure, shortened: as §1

[3] = compound: C1=CC(=CC=C1C2=NC3=C(N2)C=C(C=C3)C(=O)N)OC4=CC=C(C=C4)Cl
Procedure, shortened: as §1

[4] = compound: C1=CC2=C(C=CC(=C2)/C=C\3/C(=O)NC(=NCC4=CC=CS4)S3)N=C1
Procedure, shortened: as §1

[5] = compound: C1=CC2=NC=CN=C2C=C1/C=C/3\C(=O)NC(=O)S3
Procedure, shortened: as §1

[6] = compound: C1=CC=C(C=C1)C2=NC(=C(N2)C3=CC=NC=C3)C4=CC(=C(C=C4)Cl)O
Procedure, shortened: as §1

[7] = compound: C1=CC=C2C(=C1)C3=NNC4=CC=CC(=C43)C2=O
Procedure, shortened: as §1

[8] = compound: C1CCN(C1)C(=O)NC2=CC=CC(=C2)NC3=NC=C(C(=N3)NCCC4=CN=CN4)Br
Procedure, shortened: as §1

[9] = compound: C1CN(CCC1(CC2=CC=C(C=C2)Cl)N)C3=NC=NC4=C3C=CN4
Procedure, shortened: as §1

[10] = compound: C1COCCN1CCN2C3=CC=CC=C3N=C2NC(=O)C4=CC(=CC=C4)[N+](=O)[O-] [IRAK-1-4 Inhibitor I]
Procedure, shortened: as §1

[11] = compound: C=CC(=O)N1CCC[C@@H](n2nc(-c3ccc(Oc4ccccc4)cc3)c3c(N)ncnc32)C1 [ibrutinib]
Procedure, shortened: as §1

[12] = compound: CC(=O)c1cnc2ccc(-c3cc(Cl)c(O)c(Cl)c3)nc2c1N[C@H]1CC[C@H](CN(C)C)CC1
Procedure, shortened: as §1

[13] = compound: CC(C)(C)Cn1c(N)nc2ccc(-c3[nH]c(C(C)(C)C)nc3-c3ccc(F)cc3)nc21 [ralimetinib]
Procedure, shortened: as §1

[14] = compound: CC(C)(O)CC(=O)NCCn1ccc2ncnc(Nc3ccc(Oc4cccc(C(F)(F)F)c4)c(Cl)c3)c21
Procedure, shortened: as §1

[15] = compound: CC(C)C1=C2N=C(C=C(N2N=C1)NCC3=CC=CC=C3)NCCCCCCN
Procedure, shortened: as §1

[16] = compound: CC1=C(C(CC(=O)N1)C2=CC=C(C=C2)C(F)(F)F)C(=O)NC3=C(C=C4C(=C3)C=NN4)F
Procedure, shortened: as §1

[17] = compound: CC1=C(C2=C(C=C1)C(=O)C3=CC=CC=C3N2CCCN)C
Procedure, shortened: as §1

[18] = compound: CC1=C(C=C(C=C1)NC(=O)C2=CC(=CC=C2)C(C)(C)C#N)NC3=CC4=C(C=C3)N=CN(C4=O)C
Procedure, shortened: as §1

[19] = compound: CC1=C(C=C(C=C1)NC(=O)C2=CC(=CC=C2)N(C)C)NC(=O)C3=CC=C(C=C3)O
Procedure, shortened: as §1

[20] = compound: CC1=CC=C(C=C1)SC2=C3C=C(SC3=CN=C2)C(=O)N
Procedure, shortened: as §1

Measured: log2 fold change

CCZ1 (UniProt P86791)
inactive: [1] 0.015 | [2] -0.049 | [3] -0.009 | [4] -0.027 | [5] -0.012 | [6] -0.018 | [7] -0.004 | [8] -0.01 | [9] 0.032 | [10] -0.002 | [11] 0.011 | [12] 0.034 | [13] -0.007 | [14] -0.003 | [15] -0.02 | [16] 0.019 | [17] 0.013 | [18] 0.008 | [19] 0.016 | [20] 0.009

CCDC117 (UniProt Q8IWD4)
inactive: [1] -0.066 | [2] -0.057 | [3] 0.074 | [4] -0.036 | [5] -0.029 | [6] -0.041 | [7] -0.041 | [8] -0.031 | [9] 0.069 | [10] 0.013 | [11] -0.034 | [12] 0.008 | [13] 0.062 | [14] -0.089 | [15] -0.057 | [16] -0.025 | [17] -0.017 | [18] 0.052 | [19] -0.047 | [20] -0.011

CBX3 (UniProt Q13185)
inactive: [1] -0.041 | [2] 0.073 | [3] 0.012 | [4] -0.041 | [5] -0.035 | [6] 0.009 | [7] 0.014 | [8] 0.013 | [9] -0.012 | [10] 0.003 | [11] -0.02 | [12] -0.001 | [13] -0.001 | [14] -0.017 | [15] 0.127 | [16] -0.04 | [17] -0.012 | [18] -0.037 | [19] -0.017 | [20] 0.001

CBFB isoform 2 (UniProt Q13951)
inactive: [1] -0.045 | [2] 0.031 | [3] -0.033 | [4] 0 | [5] 0.023 | [6] -0.007 | [7] -0.022 | [8] 0.03 | [9] 0 | [10] 0.002 | [11] 0.018 | [12] 0.022 | [13] 0.011 | [14] 0 | [15] -0.05 | [16] -0.012 | [17] 0.074 | [18] -0.017 | [19] 0.039 | [20] 0.014

CCDC25 (UniProt Q86WR0)
inactive: [1] -0.012 | [2] 0.031 | [3] 0.031 | [4] 0.012 | [5] 0.019 | [6] 0.015 | [7] 0.007 | [8] -0.006 | [9] 0 | [10] -0.024 | [11] 0.023 | [12] -0.006 | [13] -0.018 | [14] -0.013 | [15] 0.017 | [16] -0.042 | [17] -0.022 | [18] 0.03 | [19] -0.002 | [20] 0

CCDC124 (UniProt Q96CT7)
inactive: [1] -0.007 | [2] -0.054 | [3] 0.016 | [4] 0.003 | [5] -0.037 | [6] -0.005 | [7] 0.049 | [8] 0.037 | [9] -0.049 | [10] -0.015 | [11] 0.045 | [12] -0.013 | [13] 0.003 | [14] 0.005 | [15] -0.013 | [16] 0.007 | [17] 0.049 | [18] -0.022 | [19] -0.002 | [20] -0.014

CCDC174 (UniProt Q6PII3)
inactive: [1] -0.009 | [2] -0.001 | [3] -0.008 | [4] 0.01 | [5] -0.014 | [6] -0.015 | [7] 0.016 | [8] -0.061 | [9] -0.017 | [10] 0.001 | [11] 0.048 | [12] 0.002 | [13] -0.006 | [14] 0.027 | [15] -0.033 | [16] 0.045 | [17] -0.009 | [18] 0.078 | [19] -0.013 | [20] -0.016

CCDC134 (UniProt Q9H6E4)
inactive: [1] -0.017 | [2] 0.051 | [3] 0.01 | [4] -0.022 | [5] -0.012 | [6] 0.013 | [7] -0.048 | [8] 0.006 | [9] 0.033 | [10] -0.017 | [11] 0.028 | [12] -0.001 | [13] 0.008 | [14] -0.02 | [15] -0.017 | [16] -0.005 | [17] 0.008 | [18] -0.05 | [19] -0.015 | [20] -0.008
